Laboratory results taken from article PMC13581290, “A systematic interactome of Saccharomyces cerevisiae SET1C expands its functional landscape and identifies candidate regulatory connections” (eLife, 2026).
Results are given in words; binding and its absence hold for the method and conditions named. Binding can be weak; no strength is given. For some assays here: Binding seen in cells or lysates may run through a third protein.

The chains behind the UniProt entries cited, without tags or fusion partners. Where a name states a change or a piece, a line headed by the entry shows the natural chain unless it says otherwise.
UniProt P22082: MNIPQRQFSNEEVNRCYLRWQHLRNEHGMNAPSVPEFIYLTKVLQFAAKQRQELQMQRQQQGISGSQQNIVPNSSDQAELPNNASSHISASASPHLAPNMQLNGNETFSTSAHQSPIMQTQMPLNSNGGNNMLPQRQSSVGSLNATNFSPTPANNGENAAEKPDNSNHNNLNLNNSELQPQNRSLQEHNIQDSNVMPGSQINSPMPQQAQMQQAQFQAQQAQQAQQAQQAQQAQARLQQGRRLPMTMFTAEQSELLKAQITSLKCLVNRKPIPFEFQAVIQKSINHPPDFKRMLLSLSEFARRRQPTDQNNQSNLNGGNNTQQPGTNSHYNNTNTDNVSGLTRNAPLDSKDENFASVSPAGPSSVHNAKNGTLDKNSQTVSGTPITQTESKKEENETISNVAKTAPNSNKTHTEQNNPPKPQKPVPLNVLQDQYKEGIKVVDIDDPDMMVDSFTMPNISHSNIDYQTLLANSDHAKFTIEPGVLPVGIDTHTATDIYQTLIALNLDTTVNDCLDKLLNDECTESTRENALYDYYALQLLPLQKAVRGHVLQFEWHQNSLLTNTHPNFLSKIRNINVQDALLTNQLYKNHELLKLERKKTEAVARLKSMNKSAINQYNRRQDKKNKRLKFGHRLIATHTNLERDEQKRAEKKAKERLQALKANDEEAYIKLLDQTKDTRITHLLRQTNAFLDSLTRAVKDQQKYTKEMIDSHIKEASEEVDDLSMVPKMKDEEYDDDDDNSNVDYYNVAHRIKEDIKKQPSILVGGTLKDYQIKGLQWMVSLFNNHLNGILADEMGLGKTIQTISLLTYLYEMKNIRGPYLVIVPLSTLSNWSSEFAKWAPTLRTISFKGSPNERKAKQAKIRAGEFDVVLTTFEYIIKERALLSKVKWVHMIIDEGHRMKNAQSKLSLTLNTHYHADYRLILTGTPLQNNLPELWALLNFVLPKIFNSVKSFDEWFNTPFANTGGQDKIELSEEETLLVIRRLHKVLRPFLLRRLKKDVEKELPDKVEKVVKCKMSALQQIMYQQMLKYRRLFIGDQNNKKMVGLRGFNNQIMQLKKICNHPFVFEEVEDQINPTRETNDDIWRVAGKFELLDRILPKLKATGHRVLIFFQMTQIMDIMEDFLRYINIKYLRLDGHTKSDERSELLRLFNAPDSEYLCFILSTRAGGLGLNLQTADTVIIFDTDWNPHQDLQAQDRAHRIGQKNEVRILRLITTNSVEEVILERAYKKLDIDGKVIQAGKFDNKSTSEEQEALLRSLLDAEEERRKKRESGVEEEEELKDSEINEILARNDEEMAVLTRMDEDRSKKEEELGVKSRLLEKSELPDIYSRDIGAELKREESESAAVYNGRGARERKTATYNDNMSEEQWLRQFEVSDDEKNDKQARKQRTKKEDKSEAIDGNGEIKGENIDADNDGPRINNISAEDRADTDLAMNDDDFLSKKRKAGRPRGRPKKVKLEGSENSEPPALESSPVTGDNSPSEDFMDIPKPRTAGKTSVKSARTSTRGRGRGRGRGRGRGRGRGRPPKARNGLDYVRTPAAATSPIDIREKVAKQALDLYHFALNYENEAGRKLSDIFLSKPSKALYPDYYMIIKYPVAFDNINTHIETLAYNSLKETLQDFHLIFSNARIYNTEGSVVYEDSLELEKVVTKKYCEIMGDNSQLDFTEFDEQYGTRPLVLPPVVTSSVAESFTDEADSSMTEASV
UniProt P04050: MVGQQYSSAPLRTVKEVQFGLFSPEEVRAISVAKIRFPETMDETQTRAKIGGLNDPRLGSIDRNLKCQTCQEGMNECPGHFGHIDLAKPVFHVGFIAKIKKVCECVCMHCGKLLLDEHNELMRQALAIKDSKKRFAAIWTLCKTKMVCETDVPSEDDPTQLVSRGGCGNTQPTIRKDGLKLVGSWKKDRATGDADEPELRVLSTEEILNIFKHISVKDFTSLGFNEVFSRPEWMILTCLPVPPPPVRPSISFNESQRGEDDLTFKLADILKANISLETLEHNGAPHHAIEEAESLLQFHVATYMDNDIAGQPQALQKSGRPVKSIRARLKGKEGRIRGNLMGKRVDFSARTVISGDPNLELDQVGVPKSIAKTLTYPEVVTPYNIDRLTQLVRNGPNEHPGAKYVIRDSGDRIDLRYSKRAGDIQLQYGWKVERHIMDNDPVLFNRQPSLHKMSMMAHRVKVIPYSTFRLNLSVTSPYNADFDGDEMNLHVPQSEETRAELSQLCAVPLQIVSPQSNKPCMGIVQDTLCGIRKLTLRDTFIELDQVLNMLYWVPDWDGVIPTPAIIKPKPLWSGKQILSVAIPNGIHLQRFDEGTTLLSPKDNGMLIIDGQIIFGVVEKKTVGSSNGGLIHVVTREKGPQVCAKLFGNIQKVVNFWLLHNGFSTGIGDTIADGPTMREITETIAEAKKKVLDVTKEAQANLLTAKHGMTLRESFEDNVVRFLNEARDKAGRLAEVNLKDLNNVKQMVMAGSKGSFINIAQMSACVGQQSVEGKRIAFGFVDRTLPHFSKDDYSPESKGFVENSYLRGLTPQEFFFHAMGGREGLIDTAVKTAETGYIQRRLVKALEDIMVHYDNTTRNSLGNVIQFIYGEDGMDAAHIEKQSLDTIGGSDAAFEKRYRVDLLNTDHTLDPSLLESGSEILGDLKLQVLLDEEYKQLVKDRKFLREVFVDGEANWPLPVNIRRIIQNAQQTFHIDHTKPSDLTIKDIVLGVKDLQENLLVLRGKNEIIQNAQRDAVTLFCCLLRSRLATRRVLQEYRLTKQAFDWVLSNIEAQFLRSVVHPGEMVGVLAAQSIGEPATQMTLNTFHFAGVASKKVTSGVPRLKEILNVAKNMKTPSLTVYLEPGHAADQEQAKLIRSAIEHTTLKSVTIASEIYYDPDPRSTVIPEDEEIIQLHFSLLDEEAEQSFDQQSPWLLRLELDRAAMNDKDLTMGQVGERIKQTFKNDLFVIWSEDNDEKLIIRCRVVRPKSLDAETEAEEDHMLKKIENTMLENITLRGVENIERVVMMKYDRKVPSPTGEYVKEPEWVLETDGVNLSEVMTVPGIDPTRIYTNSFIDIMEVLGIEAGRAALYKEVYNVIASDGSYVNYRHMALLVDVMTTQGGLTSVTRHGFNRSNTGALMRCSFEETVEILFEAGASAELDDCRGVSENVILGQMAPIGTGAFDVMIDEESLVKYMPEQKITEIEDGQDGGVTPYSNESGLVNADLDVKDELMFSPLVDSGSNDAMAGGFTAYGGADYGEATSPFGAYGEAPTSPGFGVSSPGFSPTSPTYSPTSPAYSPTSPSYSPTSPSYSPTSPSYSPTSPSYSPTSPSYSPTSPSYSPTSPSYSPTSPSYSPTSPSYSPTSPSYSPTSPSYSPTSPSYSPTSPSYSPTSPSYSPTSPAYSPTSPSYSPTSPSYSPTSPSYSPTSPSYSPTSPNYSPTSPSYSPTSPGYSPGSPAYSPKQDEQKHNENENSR

Legend:
[1] = target: Snf2∆RG-Myc (S. cerevisiae) (UniProt P22082); experiment: co-IP; yeast lysate in TMG 50 (10 mM Tris-HCl pH 8.0, 50 mM NaCl, 10% glycerol); Myc-tagged Snf2 precipitated overnight with 9E10 antibody and protein-G dynabeads; blot with anti-Set1 antibodies
[2] = target: T1, Set1 1–754, two-hybrid bait (S. cerevisiae) (UniProt P38827); experiment: two-hybrid; 10 screens (Hybrigenics) of a genomic S. cerevisiae library in pP6 by mating; baits fused to the Gal4 DNA-binding domain or LexA; selection on medium lacking tryptophan, leucine and histidine, with 3AT if necessary
T1 sequence: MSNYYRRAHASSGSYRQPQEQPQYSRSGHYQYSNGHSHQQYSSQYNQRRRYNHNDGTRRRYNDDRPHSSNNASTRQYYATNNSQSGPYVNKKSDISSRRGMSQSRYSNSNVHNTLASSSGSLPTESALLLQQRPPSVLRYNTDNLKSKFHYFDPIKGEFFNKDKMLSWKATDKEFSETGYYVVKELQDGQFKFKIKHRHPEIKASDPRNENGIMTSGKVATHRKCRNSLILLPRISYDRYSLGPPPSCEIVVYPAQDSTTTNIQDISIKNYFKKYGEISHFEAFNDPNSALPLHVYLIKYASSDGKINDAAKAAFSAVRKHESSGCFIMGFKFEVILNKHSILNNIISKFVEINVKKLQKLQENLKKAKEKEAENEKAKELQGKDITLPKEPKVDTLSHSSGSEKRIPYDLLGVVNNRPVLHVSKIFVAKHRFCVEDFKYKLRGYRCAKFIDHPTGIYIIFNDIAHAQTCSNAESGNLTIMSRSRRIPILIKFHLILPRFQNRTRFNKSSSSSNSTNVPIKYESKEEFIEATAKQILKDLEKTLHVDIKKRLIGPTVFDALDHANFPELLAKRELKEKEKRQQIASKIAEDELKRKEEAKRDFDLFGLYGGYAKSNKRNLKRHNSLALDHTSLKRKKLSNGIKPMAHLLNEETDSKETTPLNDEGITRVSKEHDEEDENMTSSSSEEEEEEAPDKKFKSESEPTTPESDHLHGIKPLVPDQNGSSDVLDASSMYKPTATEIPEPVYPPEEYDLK

Row | Substance | binding [1] | binding [2]
1 | Set1 (endogenous) (from UniProt P38827 1-1080) | binds | –
2 | CTD of Rpb1, two-hybrid prey (from UniProt P04050) (domain or fragment) | – | binds
